Results reported in PMC9618025.
No constants are given. Whether binding was seen depends on the method and setting. In cells and extracts the contact can be indirect. Some binding calls cover weakened binding; strength is not graded here.

Sequences of proteins named here, by UniProt entry; tags and fusion partners are left off. A change or cut given only in a name is not applied to a line headed by its entry. A line that says so, or that is headed by a name, gives the form on record, which may keep a tag or linker. Residues count along the entry.
Transient Receptor Potential Cation Channel Subfamily C Member 1 (TRPC1), endogenous in A549 cells (P48995-2, form named): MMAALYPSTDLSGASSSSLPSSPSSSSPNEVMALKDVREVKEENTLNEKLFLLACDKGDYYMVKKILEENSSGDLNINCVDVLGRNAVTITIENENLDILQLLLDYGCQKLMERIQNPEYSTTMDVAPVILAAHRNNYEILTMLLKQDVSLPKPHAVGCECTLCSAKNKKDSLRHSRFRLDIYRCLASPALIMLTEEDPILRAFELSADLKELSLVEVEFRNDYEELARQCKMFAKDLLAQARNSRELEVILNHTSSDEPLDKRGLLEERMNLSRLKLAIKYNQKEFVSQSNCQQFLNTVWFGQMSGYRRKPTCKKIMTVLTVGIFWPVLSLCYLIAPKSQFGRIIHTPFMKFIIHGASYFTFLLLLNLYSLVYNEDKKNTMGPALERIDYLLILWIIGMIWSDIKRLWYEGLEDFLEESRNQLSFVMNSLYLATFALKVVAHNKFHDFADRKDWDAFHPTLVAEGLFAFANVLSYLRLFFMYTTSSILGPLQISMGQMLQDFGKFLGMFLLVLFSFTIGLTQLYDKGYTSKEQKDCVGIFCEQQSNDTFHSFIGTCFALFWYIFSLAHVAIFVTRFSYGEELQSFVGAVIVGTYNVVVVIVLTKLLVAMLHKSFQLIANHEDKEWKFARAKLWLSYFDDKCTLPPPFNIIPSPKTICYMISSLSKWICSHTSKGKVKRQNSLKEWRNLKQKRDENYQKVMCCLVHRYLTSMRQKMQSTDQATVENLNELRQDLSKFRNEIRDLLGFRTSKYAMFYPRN
UniProt Q13586, residues 23-685: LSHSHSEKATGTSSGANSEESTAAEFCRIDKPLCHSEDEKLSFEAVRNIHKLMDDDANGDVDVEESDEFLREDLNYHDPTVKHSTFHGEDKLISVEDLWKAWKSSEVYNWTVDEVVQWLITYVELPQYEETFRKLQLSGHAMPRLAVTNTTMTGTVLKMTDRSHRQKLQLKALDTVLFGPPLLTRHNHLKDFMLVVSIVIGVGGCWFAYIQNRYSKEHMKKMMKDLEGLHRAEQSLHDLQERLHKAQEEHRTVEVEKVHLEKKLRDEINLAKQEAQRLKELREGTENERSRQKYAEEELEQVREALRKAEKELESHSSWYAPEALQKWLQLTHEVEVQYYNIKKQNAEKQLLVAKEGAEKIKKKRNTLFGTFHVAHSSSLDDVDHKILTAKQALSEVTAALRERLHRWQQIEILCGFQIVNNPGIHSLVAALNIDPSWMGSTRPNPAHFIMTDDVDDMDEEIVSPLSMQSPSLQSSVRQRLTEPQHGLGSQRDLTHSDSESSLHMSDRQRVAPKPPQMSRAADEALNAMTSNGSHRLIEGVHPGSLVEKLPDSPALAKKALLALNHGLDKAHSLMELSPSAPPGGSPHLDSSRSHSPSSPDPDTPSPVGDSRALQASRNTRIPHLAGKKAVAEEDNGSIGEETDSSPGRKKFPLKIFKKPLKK

What was measured:
[1] = molecular target: Transient Receptor Potential Cation Channel Subfamily C Member 1 (TRPC1), endogenous in A549 cells (human (endogenous in A549)) (UniProt P48995); experiment: co-IP; A549 cells treated with 800 μM PQ for 0, 5, 15, 30, 60 min; lysate with TRPC1 antibody overnight, protein A/G beads 3 h at 4 °C; blots for STIM1 and ORAI1
[2] = molecular target: STIM1 (endogenous, A549 cells) (human (endogenous in A549)) (UniProt Q13586); experiment: co-IP; A549 cells treated with 800 μM PQ for 0-60 min, or infected with shRNA-ORAI1 or shRNA-TRPC1 and treated with 800 μM PQ for 24 h; STIM1 precipitated, blots for ORAI1 and TRPC1

With “STIM1 (endogenous, A549 cells) (from UniProt Q13586 23-685)” the binding [1] was “binds”.
“Transient Receptor Potential Cation Channel Subfamily C Member 1 (TRPC1), endogenous in A549 cells (from UniProt P48995-2 1-759)” was tested, and the binding [2] was “binds”.
